# Measured values as given in article PMC8024975.
# Assays:
# Experiment in all cases: peptide or protein array; PepSpots membrane of 13-mer Has1 peptides overlapping by 10 residues, incubated with 2 μM purified ClpGGI N1 domain for 30 min at RT in buffer C (10 mM Tris pH 7.5, 150 mM KCl, 20 mM MgCl2, 5% sucrose, 0.005% Tween 20); bound N1 electrotransferred to PVDF and detected with N1-specific polyclonal antibodies; both purified
# [1] = target: T1, peptide 2 (S. cerevisiae)
# T1 sequence (peptide): SNKRSRDSESTEE
# [2] = target: T2, Peptide 92 (S. cerevisiae)
# T2 sequence (peptide): KRFLLLFSFLKRN
# [3] = target: T3, peptide 134 (S. cerevisiae)
# T3 sequence (peptide): FLRYLKASKVPLN
substance,measurement,setting,value
N1–domain–ClpGGI (P. aeruginosa) (domain or fragment),binding,[1],no binding (tested: 2 μM)
same,binding,[2],binds
same,binding,[3],binds

# These are yes or no findings as the source states them, for the method shown. For part of these data: Binding can be weak; no strength is given.
